Consider two molecules from article PMC11153576.

The chains behind the UniProt entries cited, without tags or fusion partners.
UniProt P45983: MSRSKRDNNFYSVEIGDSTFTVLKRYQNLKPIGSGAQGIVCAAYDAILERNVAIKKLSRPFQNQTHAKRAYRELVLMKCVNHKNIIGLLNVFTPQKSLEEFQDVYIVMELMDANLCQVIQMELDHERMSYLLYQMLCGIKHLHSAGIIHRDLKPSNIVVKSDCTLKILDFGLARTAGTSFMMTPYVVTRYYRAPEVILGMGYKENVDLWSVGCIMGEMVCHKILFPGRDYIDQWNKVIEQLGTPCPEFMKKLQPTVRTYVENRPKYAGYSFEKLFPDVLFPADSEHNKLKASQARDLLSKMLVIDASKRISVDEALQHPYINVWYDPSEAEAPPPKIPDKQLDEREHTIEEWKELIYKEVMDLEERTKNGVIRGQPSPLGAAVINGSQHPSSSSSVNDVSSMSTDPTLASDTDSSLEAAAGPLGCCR

These are yes or no findings as the source states them, for the method shown. For some assays here: Binding seen in cells or lysates may run through a third protein. Some entries that bind do so weakly or less than the wild type.

Test [1] deals with T1, Forkhead Box Q1 (FOXQ1) (UniProt Q9C009).
T1 sequence: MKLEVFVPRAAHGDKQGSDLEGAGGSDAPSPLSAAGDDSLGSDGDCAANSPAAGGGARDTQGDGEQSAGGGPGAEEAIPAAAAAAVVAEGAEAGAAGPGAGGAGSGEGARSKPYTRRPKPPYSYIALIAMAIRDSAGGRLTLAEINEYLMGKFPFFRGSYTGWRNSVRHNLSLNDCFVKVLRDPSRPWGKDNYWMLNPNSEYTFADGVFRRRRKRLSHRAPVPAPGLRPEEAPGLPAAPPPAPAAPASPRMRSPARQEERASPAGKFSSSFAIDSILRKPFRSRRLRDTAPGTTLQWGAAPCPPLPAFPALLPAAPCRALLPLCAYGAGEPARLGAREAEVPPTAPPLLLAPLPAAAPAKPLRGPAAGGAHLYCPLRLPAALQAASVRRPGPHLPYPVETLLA
Nature of the test: co-IP; cell lysates (50 mM Tris-HCl pH 7.5, 0.5% NP-40, 150 mM NaCl, 2 mM EDTA), antibody on protein A or G agarose, 4 °C, western blot; PLC/PRF/5 and SK-Hep1 cells also treated with DMSO or sorafenib (10 μM) for 24 h. For orientation: Immunoblotting shows a protein as a band on a membrane.

In test [2] the target is T2, Forkhead Box Q1 (FOXQ1), Q9C009.
T2 chain: T1 sequence
The test is described as follows: native gel or EMSA; native polyacrylamide gel electrophoresis (native-PAGE) of FOXQ1 after sorafenib treatment of cells; methods not shown. Particulars: remark: other sources report otherwise. For orientation: In EMSA bound probe runs differently from free probe, usually more slowly.

In the case of “JNK1 (from UniProt P45983 1-427) (enzyme)”, in test [1], the binding result is reported as “binds”.

B1: Forkhead Box Q1 (FOXQ1), Q9C009 1-403 (protein)
chain: T1 sequence
On to B1, for which the binding entry in test [2] was “binds”.
